The values below come from US9872903B2, “Targeting thymidine kinase photosensitizer and pharmaceutical composition and use for cancer treatment thereof” (ZHEJIANG HISUN PHARMACEUTICAL CO., LTD., priority 2012, dated 2018).

The data set relates to in vivo tumor cells of PC3 line. The data set can be described thus: in vivo fluorescence imaging assay. Set-up: species or system mice. The settings on record: 0.5 μmol/kg, images at 4 h, 14 h, 24 h and 48 h, excitation 665 nm, emission 710-720 nm.

Consider `CCCCCCOC(C)c1c(C)c2cc3nc(c4c5[nH]c(cc6nc(cc1[nH]2)C(C)=C6CC)c(C)c5C(=O)C4)C(CCC(=O)OCC1OC(n2cc(C)c(=O)[nH]c2=O)CC1O)C3C` (stereo not shown) [Compound 3, 17^3-thymidylyl-3-((1′-n-hexyloxy)ethyl)-3-devinyl-pyropheophorbide], for which the “time after injection of best adsorption/imaging quality” value is 24 h.
